# Some of these results come from one statement about several compounds together. Some compounds share one range, which may span the group rather than tell each member.
# Tested on: DLBCL cell line LY10
# Assay: Growth inhibition / viability of LY10 cells (CellTiter Glo), single agents and combinations, Bliss synergy
# Details: LY10, 48 hours, Cell-Titer Glo
row,Compound,viable cells as percentage of the negative control
1,CC[C@H](Nc1ncnc2nc[nH]c12)c1nc2cccc(F)c2c(=O)n1-c1ccccc1 [Idelalisib],50-70%
2,Nc1ncnc2c1c(COc1cccc(Cl)c1)nn2C1CCOCC1 [PF4800567],50-70%
3,CC(C)Oc1ccc(-c2nn([C@@H](C)c3oc4ccc(F)cc4c(=O)c3-c3cccc(F)c3)c3ncnc(N)c23)cc1F [TGR-1202],50-70%
